Results are given in words; binding and its absence hold for the method and conditions named. Some entries that bind do so weakly or less than the wild type.
Target: DMRT1 of the heterodimerization gel shifts (complex not affected by the 9E10 anti-Myc antibody) (mouse) (UniProt Q9QZ59)
Assay: native gel or EMSA; DMRT1 alone or together with a Myc-tagged DMRT protein (in vitro translated) on labelled DMRT1 consensus probe; composition of the DNA/protein complexes tested by supershift with DMRT1 antibody or anti-Myc 9E10; dimers seen on DNA

Amino acid sequences for entries named in this document (tags omitted).
UniProt Q9QZ59: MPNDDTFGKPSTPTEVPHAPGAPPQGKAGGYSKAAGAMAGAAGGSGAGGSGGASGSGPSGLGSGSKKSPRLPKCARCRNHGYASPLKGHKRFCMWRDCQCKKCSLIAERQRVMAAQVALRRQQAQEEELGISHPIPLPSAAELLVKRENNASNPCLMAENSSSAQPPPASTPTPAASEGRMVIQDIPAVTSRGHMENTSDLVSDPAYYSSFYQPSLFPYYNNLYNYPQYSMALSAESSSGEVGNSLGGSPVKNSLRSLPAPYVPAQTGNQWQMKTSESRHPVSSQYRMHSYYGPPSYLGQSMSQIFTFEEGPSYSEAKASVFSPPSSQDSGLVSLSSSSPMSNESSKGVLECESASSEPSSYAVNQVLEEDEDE
UniProt Q80WT2: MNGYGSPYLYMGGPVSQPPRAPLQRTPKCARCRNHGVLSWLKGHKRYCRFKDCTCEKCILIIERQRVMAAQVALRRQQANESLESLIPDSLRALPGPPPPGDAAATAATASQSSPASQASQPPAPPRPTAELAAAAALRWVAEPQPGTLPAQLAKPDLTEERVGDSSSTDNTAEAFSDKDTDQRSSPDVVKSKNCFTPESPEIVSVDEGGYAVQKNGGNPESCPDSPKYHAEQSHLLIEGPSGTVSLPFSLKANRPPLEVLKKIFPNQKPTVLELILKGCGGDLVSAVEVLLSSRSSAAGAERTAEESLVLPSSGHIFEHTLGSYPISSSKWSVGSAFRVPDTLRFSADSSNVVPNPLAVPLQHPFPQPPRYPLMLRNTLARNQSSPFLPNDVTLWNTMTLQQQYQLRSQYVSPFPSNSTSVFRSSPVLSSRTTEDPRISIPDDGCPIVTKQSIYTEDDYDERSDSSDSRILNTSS
UniProt A2A9A2: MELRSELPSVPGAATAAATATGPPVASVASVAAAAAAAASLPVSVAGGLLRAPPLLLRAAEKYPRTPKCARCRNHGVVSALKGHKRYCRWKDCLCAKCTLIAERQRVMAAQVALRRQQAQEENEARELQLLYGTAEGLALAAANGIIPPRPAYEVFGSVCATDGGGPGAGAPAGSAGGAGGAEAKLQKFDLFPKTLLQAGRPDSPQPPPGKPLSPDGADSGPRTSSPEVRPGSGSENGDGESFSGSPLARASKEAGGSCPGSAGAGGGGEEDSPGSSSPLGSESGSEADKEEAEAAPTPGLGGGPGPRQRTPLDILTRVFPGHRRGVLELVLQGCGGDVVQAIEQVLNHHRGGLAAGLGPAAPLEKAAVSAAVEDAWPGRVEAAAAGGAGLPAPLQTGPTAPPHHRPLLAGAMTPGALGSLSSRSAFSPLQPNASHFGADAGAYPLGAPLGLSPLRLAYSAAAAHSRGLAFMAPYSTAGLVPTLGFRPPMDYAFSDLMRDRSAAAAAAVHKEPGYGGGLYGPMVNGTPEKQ

DMRT3 (mouse), Myc epitope tagged, in vitro translated (from UniProt Q80WT2 1-476)
binding: binds

DMRT5 (mouse), Myc epitope tagged, in vitro translated (from UniProt A2A9A2 1-531)
binding: binds

Source: PMC1931443
